Experimental data: PubChem BioAssay AID1259424 (University of Nebraska Medical Center, 2018)
Purpose: 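Find knockdowns that reproduce the expression shifts seen after KSR1 loss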 (primary screen). Cells: human HCT116 colon cancer cells. Reagent: siRNA pool against human genes, 50 nM. Detection: 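Log2 levels of six mRNAs (branched-DNA multiplex), adjusted by two reference genes and the non-targeting median, then scored against the average KSR1 knockdown pattern as Pearson r and euclidean distance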. Scale: mean correlation with KSR1 profile and KSR1 correlation: higher = expression change more like KSR1 knockdown; mean distance from KSR1 profile: higher = expression change less like KSR1 knockdown.
In all, the deposit lists about 14,000 reagents; this is a random part of them. 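Higher correlation or smaller distance means closer resemblance to KSR1 loss; control wells, including KSR1 knockdowns, recur on many plates.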 No sequences are given here. Not given: the time to read-out.

no.	gene symbol	mean correlation with KSR1 profile	mean distance from KSR1 profile	KSR1 correlation, replicate 1	KSR1 correlation, replicate 2	KSR1 correlation, replicate 3
1	GPR101	0.76	1.73	0.787	0.826	0.549
2	MOB1A	-0.596	9.43	-0.363	-0.463	-0.453
3	RSPH3	0.429	1.95	0.183	0.435	0.526
4	BAZ2A	-0.105	1.14	-0.294	-0.22	0.463
5	LY6K	0.811	2.26	0.66	0.928	0.709
6	DCP1A	-0.457	1.86	-0.624	-0.422	-0.329
7	FTSJ1	-0.201	4.36	-0.185	-0.0691	-0.105
8	STAT2	0.637	2.91	0.746	0.616	0.557
9	PARVG	-0.31	1.72	-0.368	-0.196	-0.221
10	GOLIM4	-0.278	1.65	-0.437	-0.486	-0.459
11	RBAK	-0.184	1.86	0.171	0.458	-0.499
12	FLII	-0.559	2.21	-0.528	-0.461	-0.61

Targets listed so far whose target name begins with R or r (2):
gene symbol	mean correlation with KSR1 profile	mean distance from KSR1 profile	KSR1 correlation, replicate 1	KSR1 correlation, replicate 2	KSR1 correlation, replicate 3
RSPH3	0.429	1.95	0.183	0.435	0.526
RBAK	-0.184	1.86	0.171	0.458	-0.499

More results follow.
no.	gene symbol	mean correlation with KSR1 profile	mean distance from KSR1 profile	KSR1 correlation, replicate 1	KSR1 correlation, replicate 2	KSR1 correlation, replicate 3
13	XYLT2	0.183	2.3	0.411	0.0939	0.0881
14	PITPNB	0.376	0.711	0.652	0.176	-0.088
15	CCDC85C	-0.0619	2.32	-0.236	-0.233	0.129
16	SYDE1	-0.371	2.36	-0.41	-0.196	-0.333
17	MRGPRX2	0.415	1.8	0.43	0.543	0.473
18	NIPAL3	-0.328	2.2	-0.236	-0.48	-0.266
19	GPN1	-0.261	3.03	-0.226	-0.132	-0.367
20	MMP3	0.14	3.77	0.182	0.168	-0.0497
